Assay results from PubChem BioAssay AID328 (DTP/NCI, 2004).
The list shows only some results of the screen, not a fair sample: it gathers tests that were run many times, whatever their T/C, doses with no T/C, and many T/C values between a quarter and a half above the control. Other doses and runs of a compound stand elsewhere. T/C is the treated group as % of the vehicle group. Some doses have a count of surviving animals in place of a T/C: the source files T/C as zero there, which appears to mark a toxic dose or a test without result, not a measured value. Some doses without a T/C left all or most animals alive at the check, yet need not have been tolerated: survival well below the control is almost never listed, so the zero probably covers shortened survival too. Counts of survivors are from the toxicity check (mostly the fifth day) where no day follows; animals may have died later. Schedule codes are those of the source, taken here to give the interval after Q, in days (D) or hours (H), and the number of doses after X. Some doses were run more than once; the results are listed from low to high. Where survival is the endpoint, the PubChem record calls one and a half times the control and up active, and a quarter to a half above the control has no call in these data; cut-offs in other NCI protocols can differ. Some T/C values carry the count of animals alive at the toxicity check (mostly the fifth day); where none is given, no animal had died by that day.

Tested on: BDF1 mice, P388 leukemia ip, median survival T/C
Assay: NCI In Vivo Anticancer Drug Screen. Data for tumor model P388 Leukemia (intraperitoneal) in B6D2F1 (BDF1) mice
Conditions: T/C endpoint: median survival time, higher T/C = longer survival
In short: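 Survival ratio, drug arm over vehicle arm, in mice with a transplanted tumour.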

[1] = dose: 400.0 mg/kg/injection, schedule: Q01DX009 (ip), vehicle: Klucel (hydroxypropylcellulose) (HPC)

C/C=C(\C)C(=O)OC1C(C)C2(O)C(C=C(CO)CC3(O)C(=O)C(C)=CC32)C2C(C)(C)C12OC(=O)CCCCCCCCC (centres undefined)
survivor count (dose: 0.02 mg/kg/injection, schedule: Q01DX009 (ip), vehicle: saline + alcohol): 4 of 4
T/C (dose: 0.02 mg/kg/injection, schedule: Q01DX009 (ip), vehicle: saline with Tween-80): 125 % of control
T/C (dose: 0.03 mg/kg/injection, schedule: Q01DX009 (ip), vehicle: saline + alcohol): 133 % of control
T/C (dose: 0.03 mg/kg/injection, schedule: Q01DX009 (ip), vehicle: saline with Tween-80): 125 % of control
T/C (dose: 0.06 mg/kg/injection, schedule: Q01DX009 (ip), vehicle: gum acacia): 136 % of control
T/C (dose: 0.06 mg/kg/injection, schedule: Q01DX009 (ip), vehicle: saline + alcohol): 135 % of control
survivor count (dose: 0.06 mg/kg/injection, schedule: Q01DX009 (ip), vehicle: saline with Tween-80): 4 of 4
T/C (dose: 0.12 mg/kg/injection, schedule: Q01DX009 (ip), vehicle: gum acacia): 136 % of control [3 of 4 alive]
T/C (dose: 0.12 mg/kg/injection, schedule: Q01DX009 (ip), vehicle: saline + alcohol): 127 [3 of 4 alive], 133, 135 % of control
survivor count (dose: 0.12 mg/kg/injection, schedule: Q01DX009 (ip), vehicle: saline with Tween-80): 4 of 4
survivor count (dose: 0.25 mg/kg/injection, schedule: Q01DX009 (ip), vehicle: gum acacia): 4 of 4
T/C (dose: 0.25 mg/kg/injection, schedule: Q01DX009 (ip), vehicle: saline + alcohol): 140 and 143 % of control
survivor count (dose: 0.25 mg/kg/injection, schedule: Q01DX009 (ip), vehicle: saline with Tween-80): 3 of 4
survivor count (dose: 0.5 mg/kg/injection, schedule: Q01DX009 (ip), vehicle: gum acacia): 4 of 4
survivor count (dose: 0.5 mg/kg/injection, schedule: Q01DX009 (ip), vehicle: saline + alcohol): 1 of 4 and 3 of 6
survivor count (dose: 0.5 mg/kg/injection, schedule: Q01DX009 (ip), vehicle: saline with Tween-80): 0 of 4
survivor count (dose: 1.0 mg/kg/injection, schedule: Q01DX009 (ip), vehicle: gum acacia): 0 of 4
survivor count (dose: 1.0 mg/kg/injection, schedule: Q01DX009 (ip), vehicle: saline + alcohol): 0 of 4 and 0 of 6
survivor count (dose: 1.0 mg/kg/injection, schedule: Q01DX009 (ip), vehicle: saline with Tween-80): 0 of 4
survivor count (dose: 2.0 mg/kg/injection, schedule: Q01DX009 (ip), vehicle: gum acacia): 0 of 4
survivor count (dose: 2.0 mg/kg/injection, schedule: Q01DX009 (ip), vehicle: saline + alcohol): 0 of 4
survivor count (dose: 2.0 mg/kg/injection, schedule: Q01DX009 (ip), vehicle: saline with Tween-80): 0 of 4

Cc1cc(C)c(C)c(C(O)(C(=O)O)c2ccccc2)c1 (centres undefined)
survivor count (dose: 400.0 mg/kg/injection, schedule: Q01DX009 (ip), vehicle: saline with Tween-80): 3 of 6

Cc1ccc(NCCN2CCCCC2)c2c(=O)c3ccccc3sc12
T/C [1]: 125 % of control
survivor count [1]: 5 of 6
T/C (dose: 400.0 mg/kg/injection, schedule: Q04DX003 (ip), vehicle: Klucel (hydroxypropylcellulose) (HPC)): 140 and 145 % of control

COc1ccc(NCCOc2ccccc2Br)cc1
T/C (dose: 200.0 mg/kg/injection, schedule: Q01DX009 (ip), vehicle: other): 127 % of control

CN(C)c1ccc(N=Cc2cc[n+](C)cc2)cc1
T/C (dose: 25.0 mg/kg/injection, schedule: Q01DX009 (ip), vehicle: saline): 127 and 127 % of control [5 of 6 alive]

O=C(O)C1OC(n2cc([N+](=O)[O-])c(=O)[nH]c2=O)C(O)C1O (centres undefined)
survivor count (dose: 200.0 mg/kg/injection, schedule: Q01DX009 (ip), vehicle: saline with Tween-80): 6 of 6

C1O[C@@H]1[C@H]1CO1
T/C (dose: 16.5 mg/kg/injection, schedule: Q01DX009 (ip), vehicle: saline): 136 % of control
survivor count (dose: 100.0 mg/kg/injection, schedule: Q04DX003 (ip), vehicle: saline): 0 of 6
survivor count (dose: 200.0 mg/kg/injection, schedule: Q04DX003 (ip), vehicle: saline): 0 of 6
survivor count (dose: 400.0 mg/kg/injection, schedule: Q04DX003 (ip), vehicle: saline): 0 of 6

ClCCCCCCCCCCc1ccccc1
T/C (dose: 400.0 mg/kg/injection, schedule: Q04DX003 (ip), vehicle: saline with Tween-80): 135 and 145 % of control
